In patent US9796746B2, “Compounds useful for FRET and methods related thereto” (Roche Diagnostics Operations, Inc., priority 2013, dated 2017):

Tested on: Glucose dehydrogenase
Assay: Enzymatic reduction with glucose and Glucose dehydrogenase, fluorescence emission spectra (FRET)
Type: biochemical
Conditions: excitation wavelength 360 nm; after completion of the reaction; 0.1 M Potassium phosphate buffer pH 7.0, 25° C., 100 mM Glucose, 1 mM carbaNAD form, 4 μM Glucose dehydrogenase
Method: The spectra were recorded from 370 nm to 700 nm with an excitation wavelength of 360 nm.
N6-[N-(6-“Cy 3” aminohexyl)carbamoylmethyl] carbaNADH was generated in situ from N6-[N-(6-“Cy 3” aminohexyl)carbamoylmethyl] carbaNAD by an enzymatic reaction with glucose and a Glucose dehydrogenase (as described in WO 2010/094632).
The reaction was carried out in a total volume of 1.5 ml in a closed vial in 0.1 M Potassium phosphate buffer pH 7.0 at 25° C. with 200 mM Sodium Chloride, 100 mM Glucose, 1 mM N6-[N-(6-“Cy 3” aminohexyl)carbamoylmethyl] carbaNAD and 4 μM Glucose dehydrogenase. The fluorescence spectra from 370 nM to 700 nM were recorded with an excitation wavelength of 360 nm directly before reaction start and after completion of the reaction (see FIG. 1). The generated N6-[N-(6-Cy3 aminohexyl) carbamoylmethyl] carbaNADH can be detected by the formation of two peaks at about 460 nm and 565 nm. The peak at about 460 nm represents the fluorescence of carbaNADH itself (see Ketteler et al., Fluorescence Properties of Carba Nicotinamide Adenine Dinucleotide for Glucose Sensing, ChemPhysChem (2012), 13(5), 1302-1306), whereas the peak at 565 nm represents the result of FRET to Cy3.

Substance: N6-[N-(6-“Cy 3” aminohexyl)carbamoylmethyl] carbaNADH
- fluorescence emission peak (fluorescence of carbaNADH itself): about 460 nm
- fluorescence emission peak (result of FRET to Cy3): 565 nm
